# Some of the results follow. Repeats in this data set agree poorly, so a single value says little.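 U2OS cells carrying ACE2 were mixed with U2OS cells carrying full-length spike, and fusion was scored by imaging as the share of nuclei showing both cell types' fluorescent markers. A compound counts as an inhibitory hit when it is non-toxic and its fusion z-score falls below -3, meaning more than three standard deviations below the plate's DMSO wells.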
# System: U2OS ACE2 x SARS-CoV-2 spike co-culture
# Experiment: cell-cell fusion (fraction fused) z-score vs plate DMSO control; higher = more fusion
# Details: 30 µM; 5 h; toxicity class: non-toxic, passed QC
row,Compound,cell-cell fusion (z-score)
1,CCCCCCCCCCCCCCCCCCOCC(O)CO (centres undefined),inactive: 1.73
2,C[C@@H]1C[C@H]2[C@@H]3CCC4=CC(=O)C=C[C@]4(C)[C@@]3(F)[C@@H](O)C[C@]2(C)[C@@]1(O)C(=O)COP(=O)([O-])[O-].[Na+].[Na+] [Dexamethasone Sodium Phosphate],inactive: 2.09
3,Cl.O=C1CN2Cc3c(ccc(Cl)c3Cl)N=C2N1 [Anagrelide HCl],inactive: 1.58
4,CS(=O)(=O)c1cccc(CNc2nc(Nc3ccc4c(c3)CCC(=O)N4)ncc2C(F)(F)F)c1,inactive: -0.637
5,CCOC(=O)Nc1nc2ccccc2[nH]1,inactive: 4.01
6,COCC1=C(C(=O)OC(C)OC(=O)OC(C)C)N2C(=O)[C@@H](NC(=O)/C(=N/OC)c3csc(N)n3)[C@H]2SC1 (some centres undefined),inactive: 2.72
7,c1ccc(-c2ccc(C(c3ccccc3)n3ccnc3)cc2)cc1 (centres undefined),inactive: -1.55
8,Cl.NCc1ccc(S(N)(=O)=O)cc1 [Mafenide hydrochloride],inactive: 2.9
9,NC(=O)C1CCCN1C(=O)C(Cc1c[nH]cn1)NC(=O)C1CCC(=O)N1 (centres undefined),inactive: 1.46
10,Cc1cccc(C)c1OCC(C)N.Cl (centres undefined) [Mexiletine hydrochloride],inactive: 2.16
11,Br.CN1Cc2sccc2C(c2ccc(O)c(O)c2)C1 (centres undefined),inactive: 0.578
12,"Cn1c(=O)c2[nH]c(C3CCCC3)nc2n(C)c1=O [8-Cyclopentyl-1,3-dimethylxanthine]",inactive: 3.78
13,Cl.Cl.Fc1ccc(C(c2ccc(F)cc2)N2CCN(C/C=C/c3ccccc3)CC2)cc1,inactive: 2.91
14,Cl.Cl.Fc1ccc(C(c2ccc(F)cc2)N2CCN(C/C=C/c3ccccc3)CC2)cc1 [Flunarizine dihydrochloride],inactive: 4.19
15,COc1cc2c(cc1OC)[C@@]13CCN4CC5=CCOC6CC(=O)N2C1[C@H]6[C@H]5C[C@H]43 (some centres undefined),inactive: 2.58
16,Cc1onc(-c2ccccc2Cl)c1C(=O)N[C@@H]1C(=O)N2[C@@H]1SC(C)(C)[C@@H]2C(=O)[O-].O.[Na+] [Cloxacillin sodium monohydrate],inactive: 2.59
17,CC(C)(C=O)Cc1cc(C(C)(C)C)c(O)c(C(C)(C)C)c1,inactive: 2.62
18,O=c1ncn2nc(Sc3ccc(F)cc3F)ccc2c1-c1c(Cl)cccc1Cl,inactive: 2.27
19,CCCC(C(=O)OCCN(CC)CC)(c1ccccc1)c1ccccc1.Cl [SKF-525A hydrochloride],inactive: 3.8
20,CCCC(C(=O)OCCN(CC)CC)(c1ccccc1)c1ccccc1.Cl,inactive: 2.93
21,NC1(C(=O)O)CCC1,inactive: 4.15
22,CC(C)C[C@H](NC(=O)[C@H](Cc1ccccc1)NC(=O)c1cnccn1)B(O)O [Bortezomib],inactive: 5.51

row,Compound,cell-cell fusion (z-score)
1,Cn1c(=O)c2c(ncn2CCO)n(C)c1=O,inactive: 3.81
2,C[CH2][Hg][S]c1ccccc1C(=O)[O-].[Na+],inactive: 1.56
3,CC(C)(C)C(=O)OCOP(=O)(COCCn1cnc2c(N)ncnc21)OCOC(=O)C(C)(C)C [Adefovir dipivoxil],inactive: 0.862
4,NC(=O)C(=O)[O-].[Na+] [Sodium Oxamate],inactive: 2.89
5,COC(=O)C1=C(C)NC(C)=C(C(=O)OC2CCCN(Cc3ccccc3)C2)C1c1cccc([N+](=O)[O-])c1.Cl (centres undefined) [Benidipine hydrochloride],inactive: 2.04
6,CN1C(=O)CC[C@H]1c1cccnc1 [(-)-Cotinine],inactive: 0.719
7,COc1cc(OC)c2c(OC)c(-c3ccc4c(c3)OCO4)c(=O)oc2c1,inactive: 1.84
8,NC(=O)c1ccc[n+]([C@@H]2O[C@H](COP(=O)([O-])OP(=O)(O)OC[C@H]3O[C@@H](n4cnc5c(N)ncnc54)[C@H](O)[C@@H]3O)[C@@H](O)[C@H]2O)c1,inactive: 0.657
9,CC[C@@]1(O)C[C@H](O[C@H]2C[C@H](N(C)C)[C@H](O)[C@H](C)O2)c2c(cc3c(c2O)C(=O)c2c(O)cccc2C3=O)[C@H]1C(=O)OC.Cl,inactive: 4.44
10,CN1CCc2nc(C(=O)N[C@@H]3C[C@@H](C(=O)N(C)C)CC[C@@H]3NC(=O)C(=O)Nc3ccc(Cl)cn3)sc2C1.Cc1ccc(S(=O)(=O)O)cc1.O [Edoxaban Tosylate Monohydrate],inactive: 1.69
11,Clc1ccc2c(c1)C(N1CCNCC1)=Nc1ccccc1O2 [Amoxapine],inactive: -1.97
12,CNC(=O)c1cc(Oc2ccc(NC(=O)Nc3ccc(Cl)c(C(F)(F)F)c3)c(F)c2)ccn1 [Regorafenib],active: -3.64
13,CC(=O)O[C@@H]1CC2C(C)(C)C(=O)C3OC3[C@]2(C)C2CC[C@@]3(C)[C@H](c4ccoc4)OC(=O)C4OC43[C@@]21C (some centres undefined),inactive: 2.54
14,OC[C@@H](O)[C@@H](O)[C@@H](O)CO,inactive: 1.97
15,CCN[C@H]1CN(CCCOC)S(=O)(=O)c2sc(S(N)(=O)=O)cc21 [Brinzolamide],inactive: 1.37
16,CC(=O)Oc1cc(-c2coc3cc(OC(C)=O)c(OC(C)=O)c(OC(C)=O)c3c2=O)cc(OC(C)=O)c1OC(C)=O,inactive: 4.13
17,CCN(CC)CC(=O)Nc1c(C)cccc1C.Cl [Lidocaine hydrochloride],inactive: 2.81
18,NCCO.NC[C@H]1CC[C@H](C(=O)O)CC1,inactive: 1.66
19,"O=C(O)c1cc(O)c2c(Cl)cc(Cl)cc2n1 [5,7-Dichlorokynurenic acid]",inactive: 2.28
20,CCC(C)C(NC)C(=O)O (centres undefined),inactive: 1.93
21,CC(C)C[C@H](NC(=O)[C@H](Cc1ccccc1)NC(=O)c1cnccn1)B(O)O [Bortezomib (Velcade)],inactive: 2.34
22,CCN(CC)CCOc1ccc(/C(=C(\Cl)c2ccccc2)c2ccccc2)cc1.O=C(O)CC(O)(CC(=O)O)C(=O)O,inactive: -0.0935

# Taken from above.
# In cell-cell fusion (z-score), O=C(O)c1cc(O)c2c(Cl)cc(Cl)cc2n1 [5,7-Dichlorokynurenic acid] is listed with inactive: 2.28
# In cell-cell fusion (z-score), CC(=O)O[C@@H]1CC2C(C)(C)C(=O)C3OC3[C@]2(C)C2CC[C@@]3(C)[C@H](c4ccoc4)OC(=O)C4OC43[C@@]21C (some centres undefined) is listed with inactive: 2.54
